From the supplement of paper PMC4862054
Most values lie at the level of the controls, where differences are scatter.

Columns and labels:
Test in all cases: normalised response (% of control), CellTox Green; higher = less cell death (100 = DMSO, 0 = benzethonium chloride kill control)
Conditions in all cases: incubation time: 72 h
DU-4475 = system: DU-4475
Description: (§1)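 DSRT, 72 h incubation, CellTox Green / CellTiter-Glo readout. Signal is normalised to DMSO and benzethonium chloride controls. Value is the normalised response at the lowest tested concentration.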

HCC1143 = system: HCC1143
Description: as §1

BT-474 = system: BT-474
Description: as §1

MDA-MB-436 = system: MDA-MB-436
Description: as §1

MDA-MB-468 = system: MDA-MB-468
Description: as §1

HCC1599 = system: HCC1599
Description: as §1

BT-549 = system: BT-549
Description: as §1

CAL-85-1 = system: CAL-85-1
Description: as §1

MFM-223 = system: MFM-223
Description: as §1

CAL-51 = system: CAL-51
Description: as §1

MDA-MB-453 = system: MDA-MB-453
Description: as §1

MCF-10A = system: MCF-10A
Description: as §1

HCC1937 = system: HCC1937
Description: as §1

CAL-120 = system: CAL-120
Description: as §1

CAL-148 = system: CAL-148
Description: as §1

Hs578T = system: Hs578T
Description: as §1

MDA-MB-231 = system: MDA-MB-231
Description: as §1

HDQ-P1 = system: HDQ-P1
Description: as §1

| Compound | normalised response (DU-4475) [%] | normalised response (HCC1143) [%] | normalised response (BT-474) [%] | normalised response (MDA-MB-436) [%] | normalised response (MDA-MB-468) [%] | normalised response (HCC1599) [%] | normalised response (BT-549) [%] | normalised response (CAL-85-1) [%] | normalised response (MFM-223) [%] | normalised response (CAL-51) [%] | normalised response (MDA-MB-453) [%] | normalised response (MCF-10A) [%] | normalised response (HCC1937) [%] | normalised response (CAL-120) [%] | normalised response (CAL-148) [%] | normalised response (Hs578T) [%] | normalised response (MDA-MB-231) [%] | normalised response (HDQ-P1) [%] |
| --- | --- | --- | --- | --- | --- | --- | --- | --- | --- | --- | --- | --- | --- | --- | --- | --- | --- | --- |
| Cc1ccc(C(=O)Nc2ccc(CN3CCN(C)CC3)c(C(F)(F)F)c2)cc1C#Cc1cnc2cccnn12 [Ponatinib] (0.1 nM) | 101 | 79.4 | 99.5 | 90.6 | 85.2 | 97.3 | 97.3 | 98.5 | 103 | 105 | 92.1 | 105 | 81.9 | 98.5 | 96.9 | 108 | 102 | – |
| Cc1ccc(NC(=O)c2ccc(CN3CCN(C)CC3)cc2)cc1Nc1nc(-c2cccnc2)cs1 [Masitinib] (1 nM) | 101 | 99.8 | 104 | 92.9 | 89.2 | 94.4 | 102 | 105 | 96.5 | 89.8 | 107 | – | 104 | 101 | 101 | 107 | 101 | 99.1 |
| CCC(C)(C)C(=O)O[C@H]1C[C@@H](C)C=C2C=C[C@H](C)[C@H](CC[C@@H]3C[C@@H](O)CC(=O)O3)[C@H]21 [Simvastatin] (1 nM) | 103 | 108 | 97.7 | 81.9 | 109 | 93 | 94.5 | – | 103 | 110 | 100 | 109 | – | 102 | 92.9 | 89.8 | 105 | 99.7 |
| CCS(=O)(=O)c1cccc(-c2cc(C(=O)NC3CCN(C)CC3)c(C)c3[nH]c4ncc(C)cc4c23)c1 [TAK-901] (0.1 nM) | 103 | – | 102 | 98.3 | 75 | 100 | 89.7 | 102 | 103 | 126 | 98.9 | 63.5 | 108 | 103 | 105 | 93.2 | 111 | 74.1 |
| Cc1sc2c(c1C)C(c1ccc(Cl)cc1)=N[C@@H](CC(=O)OC(C)(C)C)c1nnc(C)n1-2 [(+)JQ1] (1 nM) | 102 | 115 | 98.7 | 80.3 | 70.7 | 101 | 106 | 101 | 103 | 104 | 106 | 93 | – | 100 | – | 102 | 112 | 101 |
| C=C1C[C@@H]2[C@H](CC[C@]3(C)C(=O)CC[C@@H]23)[C@@]2(C)C=CC(=O)C=C12 [Exemestane] (1 nM) | 111 | 126 | 102 | 105 | 79.5 | 115 | 94.9 | 104 | 101 | 112 | – | 104 | – | 100 | 85.7 | 114 | 119 | 99.6 |
| O=C(/C=C/c1cccc(S(=O)(=O)Nc2ccccc2)c1)NO [Belinostat] (1 nM) | 95.8 | – | 98.4 | 68 | 97.5 | 93.7 | 92.2 | 101 | 104 | 99 | 108 | 65.9 | 100 | 99.1 | 104 | 96 | 86.2 | 103 |
| CN(C)C/C=C/C(=O)Nc1cc2c(Nc3ccc(F)c(Cl)c3)ncnc2cc1O[C@H]1CCOC1 [Afatinib] (0.1 nM) | 101 | 113 | 102 | 72.8 | 95.1 | 97.4 | 94.7 | 98.6 | 94.3 | 111 | 104 | 99.9 | 104 | 96.2 | 102 | 101 | 107 | – |
| CC(C)Cn1cnc2c(N)nc3ccccc3c21 [Imiquimod] (0.25 nM) | 104 | – | 96.7 | 95.9 | 115 | 108 | 93.1 | 95.2 | 103 | 103 | 107 | 106 | – | 102 | 95.2 | 106 | 78.4 | 96.8 |
| Cn1nnc2c(C(N)=O)ncn2c1=O [Temozolomide] (1 nM) | 99.7 | 103 | 90.9 | 93.6 | 74.7 | 100 | 100 | 104 | 91.5 | 88.2 | 101 | 110 | 95 | 102 | – | 101 | 54.2 | – |
| Nc1nccc(-c2c(-c3ccc(F)cc3)ncn2C2CCCCC2)n1 (1 nM) | 108 | – | 103 | 96.6 | – | 112 | 93.3 | 97.2 | 101 | 115 | 105 | 112 | 62.5 | 102 | 97.7 | 95.6 | 124 | 110 |
| COc1nc(N)nc2c1ncn2[C@@H]1O[C@H](CO)[C@@H](O)[C@@H]1O [Nelarabine] (1 nM) | 93 | 104 | 97.9 | 90.9 | 111 | 86.6 | 102 | 106 | 96.4 | 111 | 95.1 | -9.84 | 61.8 | 99.7 | 93.1 | 96 | 85.2 | – |

Part of the list above, as comma-separated lines.
Compound,normalised response (DU-4475) [%],normalised response (HCC1143) [%],normalised response (BT-474) [%],normalised response (MDA-MB-436) [%],normalised response (MDA-MB-468) [%],normalised response (HCC1599) [%],normalised response (BT-549) [%],normalised response (CAL-85-1) [%],normalised response (MFM-223) [%],normalised response (CAL-51) [%],normalised response (MDA-MB-453) [%],normalised response (MCF-10A) [%],normalised response (HCC1937) [%],normalised response (CAL-120) [%],normalised response (CAL-148) [%],normalised response (Hs578T) [%],normalised response (MDA-MB-231) [%],normalised response (HDQ-P1) [%]
CCS(=O)(=O)c1cccc(-c2cc(C(=O)NC3CCN(C)CC3)c(C)c3[nH]c4ncc(C)cc4c23)c1 [TAK-901] (0.1 nM),103,–,102,98.3,75,100,89.7,102,103,126,98.9,63.5,108,103,105,93.2,111,74.1
Cc1sc2c(c1C)C(c1ccc(Cl)cc1)=N[C@@H](CC(=O)OC(C)(C)C)c1nnc(C)n1-2 [(+)JQ1] (1 nM),102,115,98.7,80.3,70.7,101,106,101,103,104,106,93,–,100,–,102,112,101
